# Data taken from PubChem BioAssay AID662 (National Center for Advancing Translational Sciences (NCATS), 2007).
# The other results are listed elsewhere or left out. Further columns of the screen follow, without active or inactive calls. Compounds called inactive in the main read-out are mostly missing here. Words in brackets tell the shape of the fitted curve; partial curves, single points and poor fits give uncertain potencies.
# Test: Cell signaling CRE-BLA (Fsk stim)
# Settings: CHO CRE-bla reporter (cAMP response element driving beta-lactamase), forskolin EC10, beta-lactamase ratio; measured here: 460 nm blue channel
# In short: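 qHTS titration format; CRE-bla CHO reporter; stimulus EC10 NKH 477, a water-soluble forskolin. Read: CCF4 460/530 nm ratio. Potency expressed as AC50 for activators or inhibitors.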
row,SMILES,AC50
1,COc1ccc(CCN(Cc2cc3cc(C)ccc3[nH]c2=O)C(=O)N2CCCC2)cc1OC,"12.6 µM [rising, single point]"
2,O=C(COn1nnc2ccccc21)NCC1CCCCC1,"3.98 µM [falling, single point]"
3,COc1ccc2c(Cl)c(-c3nnc(SCC(N)=O)n3C)sc2c1,"10 µM [rising, partial curve]"
4,CC(C)OCCCNC(=O)CN1CCN(Cc2ccccc2Cl)C1=O,"3.16 µM [rising, partial curve]"
5,O=C(CCCn1c(=O)c2sccc2n(CC(=O)NCc2ccco2)c1=O)NCc1ccco1,"10 µM [rising, partial curve, poor fit]"
6,CCCn1c2c(c(O)c(C(=O)Nc3ncccc3C)c1=O)CCCC2,"1 µM [rising, full curve]"
7,Cc1nc2cnc(N3CCNCC3)nc2n(-c2ccccc2)c1=O,"12.6 µM [rising, partial curve]"
8,O=C(NCCc1ccco1)c1nn(Cc2ccccc2)c(=O)c2ccccc12,"10 µM [rising, partial curve]"
9,CCn1c(SCC(=O)NCCOc2ccccc2)nc2ccccc2c1=O,"12.6 µM [rising, partial curve]"
10,Cc1c(O)ccc(C(=O)COc2ccccc2F)c1O,"15.8 µM [falling, single point]"
11,Cc1ccc(CN2C(=O)CCC2C(=O)NC2CCCC2)cc1 (centres undefined),"25.1 µM [rising, single point]"
12,CCC(O)CNc1nc(SC)nc2sc3c(c12)CCN(C)C3 (centres undefined),"25.1 µM [rising, single point]"
13,CCn1cc(C(=O)OCC(=O)Nc2ccc(S(=O)(=O)N3CCCC3)cc2)c(=O)c2ccc(C)nc21,"0.0251 µM [rising, full curve, poor fit]"
14,O=[N+]([O-])c1cccc2cn[nH]c12,"31.6 µM [falling, single point]"
15,O=C(c1cc(-c2cccnc2)nc2ccc(Br)cc12)N1CCN(c2ncccn2)CC1,"0.00398 µM [falling, full curve, poor fit]"
16,CCOC(=O)Cn1nnnc1C(CC)N(Cc1cccs1)Cc1cc2ccc(OC)cc2[nH]c1=O (centres undefined),"20 µM [rising, single point]"
17,COc1cccc(C(=O)c2cc3ccc(O)cc3oc2=O)c1,"25.1 µM [rising, single point]"
18,CCOC(=O)CCS(=O)(=O)c1nc(-c2ccccc2)cc(C(F)(F)F)n1,"7.94 µM [falling, partial curve]"
19,OCCN(Cc1ccccc1)CC1CC=CCC1 (centres undefined),"0.316 µM [rising, partial curve]"

# Pulled by compound from the list above, 2 records:
row,SMILES,AC50
14,O=[N+]([O-])c1cccc2cn[nH]c12,"31.6 µM [falling, single point]"
4,CC(C)OCCCNC(=O)CN1CCN(Cc2ccccc2Cl)C1=O,"3.16 µM [rising, partial curve]"
